Data from publication PMC7862700.
Only a part is listed here, and it is no random draw. At the low end of the ranking the order means little.

Columns and labels:
Assay in all cases: DAPPL (digital affinity profiling via proximity ligation, sequencing)
Details in all cases: 10 mM Tris-HCl pH 7.5, 50 mM NaCl, 1 mM DTT, 4% glycerol, room temperature, 30 min; GST-TFs on glutathione beads, 16-mer random dsDNA library, 0.1% …; high values mean tight binding; double strand, one strand shown; scale: fold enrichment (6-mer frequency, TF over GST control)
ELK1 = biological target: T1, ELK1 (UniProt P19419)
T1 sequence: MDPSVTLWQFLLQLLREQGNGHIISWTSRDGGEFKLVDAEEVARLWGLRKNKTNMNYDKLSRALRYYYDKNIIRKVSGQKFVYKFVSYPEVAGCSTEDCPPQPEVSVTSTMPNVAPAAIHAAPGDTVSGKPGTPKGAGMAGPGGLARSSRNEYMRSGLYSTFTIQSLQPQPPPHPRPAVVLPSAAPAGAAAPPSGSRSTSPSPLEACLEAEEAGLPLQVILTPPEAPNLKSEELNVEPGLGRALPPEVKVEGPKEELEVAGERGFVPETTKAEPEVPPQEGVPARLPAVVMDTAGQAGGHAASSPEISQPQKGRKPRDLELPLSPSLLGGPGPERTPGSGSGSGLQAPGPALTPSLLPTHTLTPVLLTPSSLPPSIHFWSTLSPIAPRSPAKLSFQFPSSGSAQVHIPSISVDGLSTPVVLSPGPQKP

ELK3 = biological target: T2, ELK3 (UniProt P41970)
T2 sequence: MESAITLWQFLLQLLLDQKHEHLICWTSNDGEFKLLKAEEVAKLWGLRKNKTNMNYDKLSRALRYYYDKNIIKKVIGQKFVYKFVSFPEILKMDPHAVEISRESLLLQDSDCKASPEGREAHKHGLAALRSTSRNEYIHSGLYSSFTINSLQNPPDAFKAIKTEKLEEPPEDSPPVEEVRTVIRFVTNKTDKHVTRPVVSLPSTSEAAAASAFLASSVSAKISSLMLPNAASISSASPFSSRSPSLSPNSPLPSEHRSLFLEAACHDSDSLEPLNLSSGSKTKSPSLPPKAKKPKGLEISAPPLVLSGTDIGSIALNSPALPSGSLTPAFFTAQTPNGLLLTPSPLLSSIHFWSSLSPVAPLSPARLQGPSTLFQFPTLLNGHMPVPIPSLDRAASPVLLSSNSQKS

ETS2 = biological target: T3, ETS2 (UniProt P15036)
T3 sequence: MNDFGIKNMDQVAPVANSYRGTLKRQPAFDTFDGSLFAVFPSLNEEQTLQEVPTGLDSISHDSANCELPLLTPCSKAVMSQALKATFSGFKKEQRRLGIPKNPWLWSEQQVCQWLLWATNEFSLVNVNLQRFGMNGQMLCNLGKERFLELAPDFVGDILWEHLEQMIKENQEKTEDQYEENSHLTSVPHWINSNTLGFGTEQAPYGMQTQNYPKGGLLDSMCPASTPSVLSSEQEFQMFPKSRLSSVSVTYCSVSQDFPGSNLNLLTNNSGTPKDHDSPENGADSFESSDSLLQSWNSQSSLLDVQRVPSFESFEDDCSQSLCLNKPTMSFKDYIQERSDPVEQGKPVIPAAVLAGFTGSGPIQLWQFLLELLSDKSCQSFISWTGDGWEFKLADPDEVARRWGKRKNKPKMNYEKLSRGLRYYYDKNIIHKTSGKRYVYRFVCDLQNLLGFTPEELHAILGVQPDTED

ETV3 = biological target: T4, ETV3 (UniProt P41162-2)
T4 sequence: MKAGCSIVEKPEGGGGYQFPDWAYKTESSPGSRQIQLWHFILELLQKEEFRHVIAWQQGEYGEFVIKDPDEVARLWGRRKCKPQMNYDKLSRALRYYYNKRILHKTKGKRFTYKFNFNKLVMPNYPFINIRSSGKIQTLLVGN

TCCCGC gave a binding signal (ELK1) of 1.53, a binding signal (ELK3) of 1.46 and a binding signal (ETS2) of 1.34.

In the case of TGCGCG, the binding signal (ELK1) is reported as 1.05, the binding signal (ETS2) is reported as 0.897 and the binding signal (ETV3) is reported as 1.03.

Sequence CGGATA has a binding signal (ELK1) of 1.27 and a binding signal (ETS2) of 1.3.

Sequence TAACGA has a binding signal (ELK1) of 1.04 and a binding signal (ETS2) of 1.12.

Work on CTTGGT yielded a binding signal (ELK1) of 1.44, a binding signal (ETS2) of 1.45 and a binding signal (ETV3) of 1.34.

CCGGTA was tested, and the binding signal (ELK1) was 1.51 and the binding signal (ETS2) was 1.54.

Sequence ATCCAA has a binding signal (ELK1) of 1.19 and a binding signal (ETS2) of 1.18.

Sequence TCTCCG has a binding signal (ELK1) of 1.49 and a binding signal (ETS2) of 1.62.

GGTCCT was tested, and the binding signal (ELK1) was 0.945, the binding signal (ELK3) was 0.966 and the binding signal (ETS2) was 0.911. The binding signal (ETV3) was 0.965.

CTTCTG showed a binding signal (ELK1) of 1.34 and a binding signal (ETS2) of 1.34.

Sequence GTTCCA has a binding signal (ELK1) of 0.984 and a binding signal (ETS2) of 1.13.

ACATCC showed a binding signal (ELK1) of 2.73, a binding signal (ELK3) of 2.98 and a binding signal (ETS2) of 2.68. The binding signal (ETV3) was 2.88.

For CTATCT, the binding signal (ELK1) was 1.43 and the binding signal (ETS2) was 1.39.

ATTCTA gave a binding signal (ELK1) of 1.21 and a binding signal (ETS2) of 1.3.

CGCTCT was tested, and the binding signal (ELK1) was 1.25 and the binding signal (ETS2) was 1.31.

Work on CAAAAC yielded a binding signal (ELK1) of 1.27, a binding signal (ETS2) of 1.27 and a binding signal (ETV3) of 1.18.

In the case of AGCTTC, the binding signal (ELK1) is reported as 1.86, the binding signal (ELK3) is reported as 2.06 and the binding signal (ETS2) is reported as 1.77.

In the case of CATCTG, the binding signal (ELK1) is reported as 1.23 and the binding signal (ETS2) is reported as 1.24.

GGTCTT gave a binding signal (ELK1) of 1.11, a binding signal (ETS2) of 1.23 and a binding signal (ETV3) of 1.16.

CCTTGG was tested, and the binding signal (ELK1) was 1.41 and the binding signal (ETS2) was 1.25.

CCGCTA showed a binding signal (ELK1) of 1.37 and a binding signal (ETS2) of 1.32.

TGGTAG was tested, and the binding signal (ELK1) was 1.02 and the binding signal (ETS2) was 1.04.

Sequence TCGCTC has a binding signal (ELK1) of 1.27 and a binding signal (ETS2) of 1.32.

ATGCTT showed a binding signal (ELK1) of 1.42 and a binding signal (ETS2) of 1.28.

In the case of CTAAAA, the binding signal (ELK1) is reported as 1.12, the binding signal (ETS2) is reported as 1.21 and the binding signal (ETV3) is reported as 1.12.

With CGACTT the binding signal (ELK1) was 1.85 and the binding signal (ETS2) was 1.76.

For AAATGT, the binding signal (ELK1) was 1.19 and the binding signal (ETS2) was 1.44.

In the case of ATCCCC, the binding signal (ELK1) is reported as 1.46 and the binding signal (ETS2) is reported as 1.29.

Sequence ACGATC has a binding signal (ELK1) of 0.991 and a binding signal (ETS2) of 1.14.

CCGCGT showed a binding signal (ELK1) of 1.11, a binding signal (ELK3) of 0.955 and a binding signal (ETS2) of 1.13.

Work on GTAAAA yielded a binding signal (ELK1) of 1 and a binding signal (ETS2) of 1.13.

With TCCTAT the binding signal (ELK1) was 1.56 and the binding signal (ETS2) was 1.65.

TTACCG showed a binding signal (ELK1) of 1.16 and a binding signal (ETS2) of 1.19.

CTGGTT showed a binding signal (ELK1) of 1.3, a binding signal (ETS2) of 1.29 and a binding signal (ETV3) of 1.45.

Work on GAAGCA yielded a binding signal (ELK1) of 1.35 and a binding signal (ETS2) of 1.32.

CTCCTT gave a binding signal (ELK1) of 1.72, a binding signal (ETS2) of 1.76 and a binding signal (ETV3) of 1.95.

Work on TCTGGG yielded a binding signal (ELK1) of 1.06 and a binding signal (ETS2) of 0.985.

Sequence TGTTCA has a binding signal (ELK1) of 1.31 and a binding signal (ETS2) of 1.2.

Sequence TAGTAA has a binding signal (ELK1) of 0.999 and a binding signal (ETS2) of 0.987.

With GGTTTT the binding signal (ELK1) was 0.998, the binding signal (ELK3) was 1.04 and the binding signal (ETS2) was 1.1.

Sequence ATTTCC has a binding signal (ELK1) of 3.9 and a binding signal (ETV3) of 4.45.

In the case of AACCCA, the binding signal (ELK1) is reported as 1.03 and the binding signal (ETV3) is reported as 0.982.

GGCCCC was tested, and the binding signal (ELK1) was 0.94, the binding signal (ELK3) was 0.993 and the binding signal (ETS2) was 1.03.

Sequence GTATTC has a binding signal (ELK1) of 1.17 and a binding signal (ETV3) of 1.34.

In the case of CTGCGA, the binding signal (ELK1) is reported as 1.31 and the binding signal (ETV3) is reported as 1.32.

In the case of AATTGG, the binding signal (ELK1) is reported as 1.36 and the binding signal (ETV3) is reported as 1.28.

Sequence TTAAGC has a binding signal (ELK1) of 1.18 and a binding signal (ETV3) of 1.22.

For ATTGAC, the binding signal (ELK1) was 1.21, the binding signal (ELK3) was 1.16 and the binding signal (ETS2) was 1.36.

CCGATA gave a binding signal (ELK1) of 1.13 and a binding signal (ETV3) of 1.14.

With AAAAAG the binding signal (ELK1) was 1.18, the binding signal (ELK3) was 1.2 and the binding signal (ETV3) was 1.23.
